Laboratory results taken from PubChem BioAssay AID493014 (National Center for Advancing Translational Sciences (NCATS), 2011).
The list shows a part of the results. The main result of the screen is listed elsewhere. These columns were measured beside it and carry no call. The list favours compounds with an active or inconclusive main result. The note in brackets gives the kind of curve behind each potency; many fits are weak.

Experiment: qHTS Assay to Find Inhibitors of Chronic Active B-Cell Receptor Signaling
Conditions: ABC-DLBCL IkBa-CBG/CBR reporter, luminescence ratio (green luciferase fused to IkBa over red control in TMD8 lymphoma cells), 4 h
Outline: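 Doxycycline induced both beetle luciferases in TMD8 lymphoma cells; IKK-driven degradation limits the IkappaBalpha-fused green signal, while red luminescence normalises for cell number and nonspecific effects. Compounds tested up to 46 uM, 4 hrs.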

[1] = measured here: CBR red luminescence, cell number
[2] = measured here: IkBa-CBG green luminescence

With `N#Cc1ccccc1S(=O)(=O)N1CCNS(=O)(=O)c2ccccc21` the AC50 [1] was 23.1 µM [rising, partial curve, poor fit].

With `CCN1c2ccccc2-c2nc3ccccc3n2C1c1cccs1` (centres undefined) the AC50 [1] was 16.4 µM [falling, single point].

In the case of `COc1cc2ccccc2cc1C(=O)Nc1ccc(Cc2ccncc2)cc1`, the AC50 [1] is reported as 2.59 µM [falling, partial curve].

In the case of `c1ccc(Nc2nn[nH]n2)cc1`, the AC50 [1] is reported as 12.6 µM [rising, partial curve, poor fit].

In the case of `O=[N+]([O-])c1cccnc1SCc1ccccc1`, the AC50 [1] is reported as 10 µM [rising, partial curve, poor fit].

In the case of `CC(C)c1ccc(NC(=O)COc2nnc(-c3cccs3)c(-c3cccs3)n2)cc1`, the AC50 [1] is reported as 6.51 µM [falling, single point].

For `Cc1cccc(C(=O)NCCc2ccccc2)c1`, the AC50 [1] was 8.91 µM [falling, partial curve].

For `CCN(CC)C(=O)c1sc(NC(=O)c2c(OC)cccc2OC)c(C#N)c1C`, the AC50 [1] was 14.1 µM [rising, partial curve, poor fit].

In the case of `COc1ccc(C2=NN(CC(=O)NCCc3ccc(OC)c(OC)c3)C(=O)CC2)cc1`, the AC50 [1] is reported as 2.51 µM [rising, partial curve, poor fit].

With `O=c1c(-c2ccco2)[n+]([O-])c2ccccc2n1OCc1c(F)cccc1F` the AC50 [1] was 20 µM [falling, partial curve, poor fit].

In the case of `O=c1cc(-c2ccccc2Cl)oc2c([N+](=O)[O-])c(O)cc(O)c12`, the AC50 [1] is reported as 7.31 µM [falling, partial curve] and the AC50 [2] is reported as 5.8 µM [rising, full curve, poor fit].

In the case of `Cc1ccccc1-c1nnc(SCc2ccccc2)o1`, the AC50 [1] is reported as 0.184 µM [rising, full curve, poor fit].

For `COc1ccc(Br)cc1CN(C)C(C)C(=O)Nc1cccc(C(C)=O)c1` (centres undefined), the AC50 [1] was 6.31 µM [rising, partial curve, poor fit].

In the case of `COC(CNC(=O)CCc1c(C)nc2c(c(C)nn2-c2ccc(C)cc2)c1C)OC`, the AC50 [1] is reported as 25.1 µM [rising, single point].

For `COc1ccc(-c2nc3ccc(N4CCCC4)cc3c(=O)[nH]2)cc1OC`, the AC50 [1] was 0.355 µM [falling, full curve, poor fit].

In the case of `CCOc1ccc(NC(=O)CSc2nnc(C3CC3)n2C2CC2)cc1`, the AC50 [1] is reported as 32.6 µM [rising, partial curve, poor fit].

For `Nc1nccc(/C=C/c2c(Cl)cccc2Cl)n1`, the AC50 [1] was 35.5 µM [falling, single point].

For `COc1ccc(C[C@H]2CN3C(=NC[C@@H]3Cc3ccccc3)N2CCNC(=O)CCC2CCCCC2)cc1`, the AC50 [1] was 35.5 µM [falling, single point].

In the case of `Cn1c(=O)[nH]c(=O)c2c1nc([N+](=O)[O-])n2Cc1ccccc1`, the AC50 [1] is reported as 35.5 µM [falling, single point].

With `Cc1c(C)c2ccc(OCc3ccc(C(=O)O)o3)c(C)c2oc1=O` the AC50 [1] was 3.16 µM [falling, partial curve].

With `CC(=O)Nc1sc(-c2ccc(Cl)cc2)nc1-c1ccccc1` the AC50 [1] was 1.58 µM [rising, full curve, poor fit].

For `O=C(NCCc1csc(-c2ccccc2)n1)c1c(F)cccc1F`, the AC50 [1] was 1.41 µM [rising, partial curve, poor fit].

In the case of `N=c1ccn(CC(=O)c2ccc(-c3ccccc3)cc2)cc1`, the AC50 [1] is reported as 3.98 µM [falling, full curve].

For `COC(=O)c1c(NC(=O)c2ccc(C)cc2)csc1C`, the AC50 [1] was 12.6 µM [falling, single point].

In the case of `Cc1ccc(-c2nc3sc(CCNC(=O)c4ccc(Br)o4)c(C)n3n2)cc1`, the AC50 [1] is reported as 14.1 µM [falling, single point].

In the case of `Cc1noc(NS(=O)(=O)c2ccc(NC(=O)C34CC5CC(C3)CC(n3cnc(Br)n3)(C5)C4)cc2)c1C`, the AC50 [1] is reported as 2.59 µM [rising, partial curve].

For `COc1ccc(NC(=O)COc2ccc(-c3nn(C)c(=O)c4ccccc34)cc2)cc1`, the AC50 [1] was 1.78 µM [rising, full curve, poor fit].

In the case of `COc1ccc(-c2noc(-c3cc(Cl)ccc3Cl)n2)cc1OC`, the AC50 [1] is reported as 20.6 µM [rising, partial curve, poor fit].

With `CC(=O)/C(=N\Nc1ccccc1)Oc1ccc([N+](=O)[O-])cc1` the AC50 [1] was 13 µM [falling, partial curve] and the AC50 [2] was 20.6 µM [rising, single point].

With `O=C(O)c1[nH]c2ccccc2c1C=NCc1ccccc1Cl` the AC50 [1] was 35.5 µM [falling, single point].

With `O=C(Nc1ccccc1N1CCCC1)c1cc(Cl)ccc1Cl` the AC50 [1] was 35.5 µM [rising, single point].

With `Cc1[nH][nH]c(=O)c1C(c1ccc(-c2ccc(Cl)cc2Cl)o1)c1c(C)[nH][nH]c1=O` the AC50 [1] was 2.31 µM [falling, partial curve, poor fit].
